No constants are given. Whether binding was seen depends on the method and setting. Binding seen in cells or lysates may run through a third protein. Some entries that bind do so weakly or less than the wild type.
How the values were obtained:
[1] = molecular target: EGFR (human (endogenous in MDA-MB-468)) (UniProt P00533); experiment: proximity ligation; MDA-MB-468 cells, serum starved 24 hr, DMSO carrier or SHP099 (10 µM) for 2 hr, then 1 nM EGF for 2 min; fixed, mouse anti-EGFR and rabbit anti-GAB1, DuoLink PLA, confocal, dots per cell
[2] = molecular target: EGFR (human (endogenous in MDA-MB-468)) (UniProt P00533); experiment: proximity ligation; MDA-MB-468 cells, serum starved (basal), mock treated without EGF, DMSO carrier or SHP099 (10 µM) for 2 hr; fixed, mouse anti-EGFR and rabbit anti-GAB1, DuoLink PLA

binding [1]: binds | binding [2]: binds weakly
B1: GAB1 (protein, UniProt Q13480 1-694)
chain: MSGGEVVCSGWLRKSPPEKKLKRYAWKRRWFVLRSGRLTGDPDVLEYYKNDHAKKPIRIIDLNLCQQVDAGLTFNKKEFENSYIFDINTIDRIFYLVADSEEEMNKWVRCICDICGFNPTEEDPVKPPGSSLQAPADLPLAINTAPPSTQADSSSATLPPPYQLINVPPHLETLGIQEDPQDYLLLINCQSKKPEPTRTHADSAKSTSSETDCNDNVPSHKNPASSQSKHGMNGFFQQQMIYDSPPSRAPSASVDSSLYNLPRSYSHDVLPKVSPSSTEADGELYVFNTPSGTSSVETQMRHVSISYDIPPTPGNTYQIPRTFPEGTLGQTSKLDTIPDIPPPRPPKPHPAHDRSPVETCSIPRTASDTDSSYCIPTAGMSPSRSNTISTVDLNKLRKDASSQDCYDIPRAFPSDRSSSLEGFHNHFKVKNVLTVGSVSSEELDENYVPMNPNSPPRQHSSSFTEPIQEANYVPMTPGTFDFSSFGMQVPPPAHMGFRSSPKTPPRRPVPVADCEPPPVDRNLKPDRKVKPAPLEIKPLPEWEELQAPVRSPITRSFARDSSRFPMSPRPDSVHSTTSSSDSHDSEENYVPMNPNLSSEDPNLFGSNSLDGGSSPMIKPKGDKQVEYLDLDLDSGKSTPPRKQKSSGSGSSVADERVDYVVVDQQKTLALKSTREAWTDGRQSTESETPAKSVK

— article PMC8024022
